The target in experiment [1] is T1, purified IL13Rα2 ectodomain (UniProt Q14627).
T1 sequence: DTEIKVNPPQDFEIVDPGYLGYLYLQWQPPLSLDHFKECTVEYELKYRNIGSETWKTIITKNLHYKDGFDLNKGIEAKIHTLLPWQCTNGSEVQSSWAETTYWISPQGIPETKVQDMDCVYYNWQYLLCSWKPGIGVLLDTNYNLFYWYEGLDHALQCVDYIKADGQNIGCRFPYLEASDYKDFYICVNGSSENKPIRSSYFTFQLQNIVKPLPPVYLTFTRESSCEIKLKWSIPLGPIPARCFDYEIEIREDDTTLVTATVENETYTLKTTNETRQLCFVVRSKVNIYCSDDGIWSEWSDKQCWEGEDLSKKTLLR
The experiment is described as follows: ELISA; competition ELISA; IL13Rα2 ectodomain coated at 3 μg/mL on Maxisorp plates; IL-13 (0.3 μg/mL) and D1 peptides (1–50 µg/ml) added together, 1.5 h at room temperature; bound IL-13 detected with peroxidase-labelled anti-IL-13 antibody; both purified.

Chains of the proteins cited; added tags and fusions are not shown. Residues count along the entry.
UniProt P35225, residues 25-146: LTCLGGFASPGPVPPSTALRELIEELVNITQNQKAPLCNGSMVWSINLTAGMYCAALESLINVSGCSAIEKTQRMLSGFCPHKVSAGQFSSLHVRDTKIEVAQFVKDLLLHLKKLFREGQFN

Experiment [2] addresses Recombinant human IL-13 (human) (UniProt P35225). The description is as above.

Results are given in words; binding and its absence hold for the method and conditions named. Some results given as binding are weak or reduced against the parent protein; the word gives no strength.

For the molecule “Recombinant human IL-13 (from UniProt P35225 25-146) (ligand)”, the binding result in experiment [1] was “binds”.

GSETWKTIITKN (consisting of D amino acids (all residues)) [D-D1 enantiomer peptide]: the binding entry in experiment [2] is “binds”.

With GSETWKTIITKN [IL13Rα2 D1 peptide], the binding entry in experiment [2] is “binds weakly”.
